This is one part of the list.

Chains of the proteins cited; added tags and fusions are not shown.
UniProt Q0JBA9, entry or part of it: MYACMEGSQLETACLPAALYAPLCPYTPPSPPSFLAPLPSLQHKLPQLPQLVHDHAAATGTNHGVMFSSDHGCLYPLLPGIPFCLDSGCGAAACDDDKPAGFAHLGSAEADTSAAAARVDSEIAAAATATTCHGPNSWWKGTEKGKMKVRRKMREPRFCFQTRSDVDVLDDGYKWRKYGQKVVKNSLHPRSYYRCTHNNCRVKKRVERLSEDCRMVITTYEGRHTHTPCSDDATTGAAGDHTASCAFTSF

The target of this assay is OsWRKY34 (Oryza sativa, UniProt Q0JBA9 1-250). Briefly: protein-binding microarray (RPBM); PBS, 2% BSA, 51.3 ng/ul salmon testes DNA, 50 uM zinc acetate, 200 nM TF, 25 C, 1 h; high values mean tight binding. The following applies: protein: recombinant; tags: N-terminal polyhistidine and DsRed monomer fusion (pET32a); label: CyDye5-dUTP incorporated in the synthesized complementary strand; 3' TTTTT single-stranded linker to array surface; dsDNA, one strand shown. The gist of the method:
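An Axon 4000B scanner gave the binding signal as per-feature fluorescence intensity in arbitrary units. This followed washing of a custom Agilent array that had been incubated for 1 h at 25 °C with 200 nM protein in PBS, 2% BSA, salmon testes DNA and 50 µM zinc acetate. The proteins were transcription factors fused at the N-terminus to polyhistidine and DsRed, expressed in E. coli BL21-CodonPlus and purified on Ni–NTA.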
As to “AGTCTTCTTACTTTCATCTAAAACAGAGGTTCTTATGTTTCGGAGTCACCTAGTGCAG”, the binding signal is 8030 fluorescence intensity (a.u.). The figure for “CTCTCTTTTTCGCTTATTTTTTGCCTGTGTCAAATAACCACGGAGTCACCTAGTGCAG” is 9120 fluorescence intensity (a.u.); for “CATCCCAAACACTGTAGGTTTTTTTTTTATTTGCTCTCTACGGAGTCACCTAGTGCAG” it is 8400 fluorescence intensity (a.u.); for “TTTGATACTGACCTTTCAATTTGTTTTATATTTAACTTAACGGAGTCACCTAGTGCAG” it is 8920 fluorescence intensity (a.u.).

As for “GTCAACACCGCCGCCACTGCACCGATTCTTCTTGAGAAGACGGAGTCACCTAGTGCAG”, the binding signal is 9820 fluorescence intensity (a.u.). For the sequence “ACACACTGGCCACATCCAAACCGGTGACCAAGAAGCCAATCGGAGTCACCTAGTGCAG”, the binding signal was 8170 fluorescence intensity (a.u.). The figure for “TGCGTTGTGGGTGCTTGTGTCTGTTCTGTATTTATAAAAACGGAGTCACCTAGTGCAG” is 8750 fluorescence intensity (a.u.); for “CCGTTACACCACCCGCCTCACGCCGTCACGTCAACTTCCGCGGAGTCACCTAGTGCAG” it is 10900 fluorescence intensity (a.u.); for “CAATGGAGTGAATCCTATCGTATCCTTTGAAATTTCTATACGGAGTCACCTAGTGCAG” it is 8910 fluorescence intensity (a.u.). Regarding “CTAGCTTCGTCCTTCGTTGCTAATCCCAGCCAGTTAATCACGGAGTCACCTAGTGCAG”, the binding signal was 8060 fluorescence intensity (a.u.).

As to “ATACGTCATTTGTATTTGAGTCGGTTTTTAAGTTCCTCCGCGGAGTCACCTAGTGCAG”, the binding signal was 12200 fluorescence intensity (a.u.).

As for “CGTAGGCTGTCTCTTCTCAAGTTACACTCTACTGCCACGACGGAGTCACCTAGTGCAG”, the binding signal is 8290 fluorescence intensity (a.u.). The figure for “GGTGGTGGTGTGAGAGCAGTAGACAGGTTTTTCTTGGGGACGGAGTCACCTAGTGCAG” is 8280 fluorescence intensity (a.u.); for “CCCCTTGAGCTTCCTAGAAGGTGCCAGGCGGTCGTATTCACGGAGTCACCTAGTGCAG” it is 8430 fluorescence intensity (a.u.); for “AATCCCCAATCTCTTGGCCAGCAGCCAGTTACATTTTTCACGGAGTCACCTAGTGCAG” it is 8840 fluorescence intensity (a.u.). The figure for “GTGTCATCCCACCTGCCATTGCCCAGCAGACTCACTAGCACGGAGTCACCTAGTGCAG” is 8340 fluorescence intensity (a.u.).

For the sequence “GTCCCACGGCCTACCACCGCCCACCGATCGAAAACACAACCGGAGTCACCTAGTGCAG”, the binding signal is 9290 fluorescence intensity (a.u.). For “ATGACATACTAATAGATGATACTATTGACTTTTTTTCTATCGGAGTCACCTAGTGCAG”, the binding signal was 9980 fluorescence intensity (a.u.). Take “GGCTCTCACCTCAAGCAAAGCTACCTCCATTCCATCGCTTCGGAGTCACCTAGTGCAG”: the binding signal was 9640 fluorescence intensity (a.u.).

On to “ACCCTGTTTGCAGAAAGGCAATTTTCATTTCAACTTTCTTCGGAGTCACCTAGTGCAG”, for which the binding signal is 8480 fluorescence intensity (a.u.). Consider “TTCAATCTGTTATTCTTGTGAGTTTAGTTAATTTTCAGTCCGGAGTCACCTAGTGCAG”, for which the binding signal was 8720 fluorescence intensity (a.u.). For the sequence “GTGTATGTATATATGAGTATGTGTGTTTATATTGTATTTTCGGAGTCACCTAGTGCAG”, the binding signal is 8460 fluorescence intensity (a.u.). “CCACCACCACCACCACCACCACCGAACTCGATCCGCCATGCGGAGTCACCTAGTGCAG”: the binding signal is 10200 fluorescence intensity (a.u.). “GCTTCCGCCGACCGCCACCACTCTAGCCCTGCCGCTCCAGCGGAGTCACCTAGTGCAG”: the binding signal was 8280 fluorescence intensity (a.u.). On to “CTCCTCCATCCGTCCGTTGTGCCGCCGCCGCCATTGGTAGCGGAGTCACCTAGTGCAG”, for which the binding signal was 8340 fluorescence intensity (a.u.). With “TTGTACTATATCCTAACGAGTTTTTGGTTCACACCTGTTTCGGAGTCACCTAGTGCAG”, the binding signal is 9760 fluorescence intensity (a.u.). The figure for “AGTTAGTTTCCTTCATCCATATAGTGTTAATCTGGATCTCCGGAGTCACCTAGTGCAG” is 13400 fluorescence intensity (a.u.); for “TTTTCGTGGTTTCTCTGATTTTTTTTTTCGGGGAGTAGTTCGGAGTCACCTAGTGCAG” it is 9210 fluorescence intensity (a.u.); for “TATACTGCTGCTCCATTTGCCCTTAATTATGCTCTCTCAACGGAGTCACCTAGTGCAG” it is 8760 fluorescence intensity (a.u.).

As for “GAGAGGAGGAGGAGGAGGAGGGGATTCATTCACGTGGCTTCGGAGTCACCTAGTGCAG”, the binding signal is 8190 fluorescence intensity (a.u.). The figure for “CATCAGTCTGAAACCAAACATTTCTGTTTAACGTCAACCCCGGAGTCACCTAGTGCAG” is 8180 fluorescence intensity (a.u.); for “AATTGCAATGCTTAGCTGCGTCACTGATTCAGAACATTCACGGAGTCACCTAGTGCAG” it is 9760 fluorescence intensity (a.u.). Take “GTGCGTGCGACCCACTTCCCTCGACGATGGCGTGTACTTGCGGAGTCACCTAGTGCAG”: the binding signal is 8370 fluorescence intensity (a.u.).

Regarding “CGCGTTGCCTCTCCGTCCTCTCCTCCGCAGCTTCCCAACTCGGAGTCACCTAGTGCAG”, the binding signal was 8960 fluorescence intensity (a.u.).

As to “ATTCCTATGTTTTTCCTGCGCTCCAATCAAACGACAATTCCGGAGTCACCTAGTGCAG”, the binding signal is 9150 fluorescence intensity (a.u.). The figure for “CGACAACACAGCATCTGTTGGGCCCGATCCACCTATATTACGGAGTCACCTAGTGCAG” is 8390 fluorescence intensity (a.u.); for “CCACAGCCACGACATCGCCATCAACGCCCTCGAGCTCGCCCGGAGTCACCTAGTGCAG” it is 8200 fluorescence intensity (a.u.).

Turning to “ATTACCAAACTATACTACTGCTCGACACGGTTCGTTTTTTCGGAGTCACCTAGTGCAG”, the binding signal is 11200 fluorescence intensity (a.u.). As for “GGCCCATGTGATTCCACTGCCCCATGAGAAGCGCTGCGCGCGGAGTCACCTAGTGCAG”, the binding signal is 8390 fluorescence intensity (a.u.).

Regarding “TCTCTGAAACTACTCTGCTCGCTGCTGTCTCACACTCTCTCGGAGTCACCTAGTGCAG”, the binding signal is 9080 fluorescence intensity (a.u.). The figure for “GTCTTTTGGTGGGTTGGAGATCATTTTCATATCCCATTAGCGGAGTCACCTAGTGCAG” is 9160 fluorescence intensity (a.u.); for “CTGCCTCCTCCTTCTGTGATCACTTCTTGCAAACCAATCGCGGAGTCACCTAGTGCAG” it is 8050 fluorescence intensity (a.u.); for “GTATTATCTTTTTACCCTTTAAACTTCTGATCTTGGTTGTCGGAGTCACCTAGTGCAG” it is 9080 fluorescence intensity (a.u.).

On to “CCTGGCCTCCTCCCTCTCGCTCTACTCTATCGTCGTCTTCCGGAGTCACCTAGTGCAG”, for which the binding signal is 11700 fluorescence intensity (a.u.). The figure for “TTTGCACTCAGACTGTCCTTACTAACTGCTTTTTTTATAACGGAGTCACCTAGTGCAG” is 10100 fluorescence intensity (a.u.); for “GGGGTGGAATTGTGTTGGGTTTCTTTGGTTGAGGAGAGAGCGGAGTCACCTAGTGCAG” it is 16000 fluorescence intensity (a.u.). The figure for “CCTTAACACTTAATCCATGTGATGCATCTGTCATGCAACTCGGAGTCACCTAGTGCAG” is 8250 fluorescence intensity (a.u.); for “CTATCGCGGCCGTCCCCGCATCCTACAGCTTTGCCCGCACCGGAGTCACCTAGTGCAG” it is 9210 fluorescence intensity (a.u.); for “ACACTCTCGCCGTCGCCGCCTCCTCGCCTCCGCTTACTCCCGGAGTCACCTAGTGCAG” it is 16700 fluorescence intensity (a.u.).

For the sequence “TCACCGCTGCACTATCCAGTGTATCTCCACCCATGCGTAACGGAGTCACCTAGTGCAG”, the binding signal is 12800 fluorescence intensity (a.u.).

As for “CTCCGTTTCACAATATAAGTCATTCTATTATTTCCCACATCGGAGTCACCTAGTGCAG”, the binding signal was 8170 fluorescence intensity (a.u.). The figure for “AGTTTGGTTGTAATCCTCCTAATCTTAATCGAATTGCTTCCGGAGTCACCTAGTGCAG” is 8370 fluorescence intensity (a.u.); for “TCAATTCATACCACCACCTTTTCTTCTCGGCGTGTAATATCGGAGTCACCTAGTGCAG” it is 12100 fluorescence intensity (a.u.).

As to “CCGATCGCCGCGCCTCCCATTCCATTGCCACCACTGCCTTCGGAGTCACCTAGTGCAG”, the binding signal was 8120 fluorescence intensity (a.u.).

For the origin of these results see article PMC7819943, “Rice protein-binding microarrays: a tool to detect cis-acting elements near promoter regions in rice”.
